These are yes or no findings as the source states them, for the method shown. In cells and extracts the contact can be indirect. Some results given as binding are weak or reduced against the parent protein; the word gives no strength.

Chains of the proteins cited; added tags and fusions are not shown.
UniProt O94992: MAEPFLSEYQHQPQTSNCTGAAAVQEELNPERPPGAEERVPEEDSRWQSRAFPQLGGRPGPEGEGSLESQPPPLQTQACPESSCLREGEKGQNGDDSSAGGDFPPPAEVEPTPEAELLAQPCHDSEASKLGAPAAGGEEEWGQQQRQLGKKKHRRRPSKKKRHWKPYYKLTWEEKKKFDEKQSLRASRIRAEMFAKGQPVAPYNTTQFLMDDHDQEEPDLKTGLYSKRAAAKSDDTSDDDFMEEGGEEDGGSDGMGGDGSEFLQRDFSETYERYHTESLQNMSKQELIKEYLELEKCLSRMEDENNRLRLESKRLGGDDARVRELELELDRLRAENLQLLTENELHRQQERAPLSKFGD

This assay deals with T1, La related protein LARP7 (human (endogenous in HeLa)) (UniProt Q4G0J3).
T1 sequence: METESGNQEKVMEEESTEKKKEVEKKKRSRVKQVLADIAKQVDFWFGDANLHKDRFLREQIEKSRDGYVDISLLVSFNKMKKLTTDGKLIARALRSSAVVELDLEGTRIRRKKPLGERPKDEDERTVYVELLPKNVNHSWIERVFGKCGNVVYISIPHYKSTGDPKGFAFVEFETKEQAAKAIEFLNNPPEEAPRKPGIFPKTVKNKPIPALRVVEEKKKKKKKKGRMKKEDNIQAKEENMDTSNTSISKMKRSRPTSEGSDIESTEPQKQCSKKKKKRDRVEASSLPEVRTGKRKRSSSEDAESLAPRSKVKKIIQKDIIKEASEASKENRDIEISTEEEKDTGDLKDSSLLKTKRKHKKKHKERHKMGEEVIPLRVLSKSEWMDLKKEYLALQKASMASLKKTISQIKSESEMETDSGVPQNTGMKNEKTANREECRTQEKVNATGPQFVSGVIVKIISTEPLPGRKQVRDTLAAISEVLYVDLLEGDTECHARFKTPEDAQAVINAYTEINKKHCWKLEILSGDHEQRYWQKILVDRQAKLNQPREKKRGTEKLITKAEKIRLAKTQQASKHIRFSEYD
As to the kind of experiment: co-IP; 7SK snRNP immunoprecipitated from HeLa lysate (300 µl, 4°C, 2 hr) with affinity purified anti-LARP7 antibody covalently attached to M-270 Epoxy Dynabeads; washed in Lysis Buffer (150 mM NaCl, 0.5% NP-40); Western blot for LARP7, Cdk9, HEXIM1. (In general: Immunoblotting shows a protein as a band on a membrane.)

HEXIM1 (from UniProt O94992 1-359): the binding entry is listed as “binds”.

Values taken from publication PMC2925947.
